Percent effect of library compounds

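Whole-parasite assay of Trypanosoma brucei over 72 hours; the read-out is not stated. Concentration: 30 µM. The record gives no direction; compounds that gave an IC50 in retests scored well above the rest, so higher reads as stronger inhibition. Values scatter widely below zero; nearly all retest evidence comes from the higher of the two concentrations used. Of about 64,000 compounds tested this way, about 940 (1.5%) reached 50% or more in at least one test.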

The filed quantity is “Percent Effect” (%).
The controls that fix the scale are not given in the record; negative values are as filed.
Compounds were drawn at random from those tested, without regard to their results.

{"structure": "O=C(NCc1cccs1)c1[nH]nc2c1CS(=O)(=O)CC2", "effect": -30.13}
{"structure": "Cc1csc(C(Cc2ccsc2)NC(=O)C2CCN(S(C)(=O)=O)CC2)n1", "stereo": "stereo not drawn", "effect": -2.922}
{"structure": "Cc1ccc(S(=O)(=O)N(C)Cc2nccs2)cc1N(C)C", "effect": -70.66}
{"structure": "Cc1nc(N)nc(C)c1CC(=O)N1CCCN(CC2CC2)C(C(C)C)C1", "stereo": "stereo not drawn", "effect": -16.68}
{"structure": "COc1ccc(CN(CC2CCCO2)c2nc3c(s2)c(C)nn3C)cc1", "stereo": "stereo not drawn", "effect": -14.71}
{"structure": "CCS(=O)(=O)N1CCN(Cc2cccnc2)c2nc(C)ccc2C1.O=C(O)C(F)(F)F.O=C(O)C(F)(F)F", "effect": 30.79}
{"structure": "COc1cccc(N2CCN(CC(O)c3cc(C)ccc3C)CC2)c1", "stereo": "stereo not drawn", "effect": -36.53}
{"structure": "CN(C)C(=O)c1cccc(NC(=O)N(CCO)Cc2ccsc2)c1", "effect": -3.434}
{"structure": "[H][C@@]12C[C@@H](c3nnc(C)[nH]3)O[C@]1([H])CN(C(=O)C1CC1)C2", "effect": -63.34}
{"structure": "O=C(c1cnn[nH]1)N1CCCC1c1nc2cc(F)ccc2[nH]1", "stereo": "stereo not drawn", "effect": -8.323}
{"structure": "O=C(NC[C@H]1OC[C@@H](NC2CCC2)[C@@H]1O)Nc1ccccc1", "effect": -46.39}
{"structure": "O=C(c1ccnnc1)N1CCC2(CCN(c3ccsc3)C2=O)C1", "stereo": "stereo not drawn", "effect": -50.88}
{"structure": "Cc1cnc(CCNc2cccc(CC3CCCNC3)n2)s1.Cl", "stereo": "stereo not drawn", "effect": -1.08}
{"structure": "CNc1oc(-c2cc(S(=O)(=O)N3CCCC3)c(C)o2)nc1C#N", "effect": -31.02}
{"structure": "Cc1cnccc1N1CCN(C(=O)C2CC3(CCNCC3)CN2)CC1", "stereo": "stereo not drawn", "effect": -17.23}
{"structure": "Cc1cccc(COC2COC3(CCN(S(C)(=O)=O)CC3)C2)n1.O=C(O)C(F)(F)F", "stereo": "stereo not drawn", "effect": -14.86}
{"structure": "CCN(Cc1ccncc1)c1cc(C2CCNCC2)nc(C)n1", "effect": -25.3}
{"structure": "Cc1nc(C(C)C)ncc1C(=O)N1CCc2c(nc(N(C)C)[nH]c2=O)C1", "effect": -2.051}
{"structure": "N#Cc1ccc(CN2CCCC2Cn2cccn2)cc1", "stereo": "stereo not drawn", "effect": 2.196}
{"structure": "Cn1nc(-c2ccccc2NC(=O)c2cncc(Br)c2)ccc1=O", "effect": -42}
{"structure": "O=S(=O)(c1ccccc1)N1CCC[C@]2(C[C@H](OCC3CC3)CO2)C1", "effect": -9.275}
{"structure": "CCOc1cc(CNCc2nc(C)cc(=O)[nH]2)c(Cl)cc1OC(C)C", "effect": 3.603}
{"structure": "CCn1ccnc1CN1CCC(Oc2ccccc2F)(C(=O)O)CC1", "effect": 0.5785}
{"structure": "Cc1cccc(-c2nc(N)nc3c2CN(C(=O)c2ccncn2)C3C)c1", "stereo": "stereo not drawn", "effect": -0.8654}
{"structure": "Cc1cc(C)n(CC(C)CNC(=O)NCc2ccco2)n1", "stereo": "stereo not drawn", "effect": -19.19}
{"structure": "CC(C)[C@H]1COC(=O)N1Cc1noc(-c2ccccc2)n1", "effect": -19.04}
{"structure": "[H][C@@]12COC[C@]1([H])[C@H](OCc1ccccn1)CN2Cc1ccoc1", "effect": -25.61}
{"structure": "[H][C@]12CC[C@]([H])(CN(C(=O)c3ccc(N(C)CCO)cc3)C1)N(CCC)C2", "effect": -8.868}
{"structure": "CN1CCN([C@@H]2CCN(CC3=Cc4cc(Cl)ccc4OC3)C[C@H]2O)CC1", "effect": 22.23}
{"structure": "CC(=O)NCCNC(=O)c1sc(-c2ccc(C)cc2C)nc1C", "effect": 8.6}
{"structure": "Cc1nc(C2(O)CCCNCC2)sc1CCOc1ccc(Cl)cc1.Cl", "stereo": "stereo not drawn", "effect": 101.5}
{"structure": "COc1ccc(CC2CN(C3CCSCC3)CCO2)cc1", "stereo": "stereo not drawn", "effect": -17.32}
{"structure": "O=c1cc(CN(CCO)C2CC2)nc2ccc(Br)cn12", "effect": -1.963}
{"structure": "Cc1cc(CNC(=O)NCC(O)c2cccc(C(F)(F)F)c2)no1", "stereo": "stereo not drawn", "effect": -4.399}
{"structure": "Clc1cncc(NCc2cccc(OCCN3CCOCC3)c2)n1", "effect": 10.67}
{"structure": "CCN1CCN(C(=O)c2cnc(Cc3c(Cl)cccc3Cl)nc2O)CC1", "effect": -27.81}
{"structure": "Cc1oc(C)c(C(=O)NCc2ccccn2)c1C", "effect": -33.1}
{"structure": "Cc1cc(C)n(CC2CN(CCC(=O)NC3CCCCC3)CCO2)n1", "stereo": "stereo not drawn", "effect": -6.321}
{"structure": "CC(C)C(C(=O)N1CCCN(Cc2nccn2C)CC1)N1CCCC1", "stereo": "stereo not drawn", "effect": -51.86}
{"structure": "CCc1nc(NCC(=O)N2CCOCC2)c2c(n1)c(C)nn2CC", "effect": 60.24}
{"structure": "CCOC(=O)C1CN(C(=O)C2CCOCC2)Cc2ncn(CC)c21", "stereo": "stereo not drawn", "effect": -36.03}
{"structure": "Cn1ccc(C(=O)N2CCCC(c3cc(O)n(C)n3)C2)n1", "stereo": "stereo not drawn", "effect": -20.62}
{"structure": "Cc1ccc(C(=O)NCCC2CN(c3cnn(C)c(=O)c3)CCO2)s1", "stereo": "stereo not drawn", "effect": -9.56}
{"structure": "COCc1nc(CN2C(=O)OC[C@@H]2C(C)C)no1", "effect": -30.59}
{"structure": "O=C(CSc1ccc2c(c1)OCCO2)NS(=O)(=O)c1ccccc1F", "effect": -24.23}
{"structure": "COc1ccc(CC(=O)N2CC(=O)NCC(C)(C)C2)cc1", "effect": -15.32}
{"structure": "CCCc1cc(C(=O)NC(COC)c2ccnn2C)no1", "stereo": "stereo not drawn", "effect": -16.06}
{"structure": "O=C(O)C(F)(F)F.c1ccc(CN2CCc3ncnc(C4CC4)c3CC2)cc1", "effect": -49.77}
{"structure": "Cc1ccc(-c2cc(C(=O)N(C)Cc3noc4c3CCCC4)[nH]n2)o1", "effect": -0.5459}
{"structure": "CN(c1ccc(C(=O)NCCCN2CCCCC2)c(Cl)c1)S(C)(=O)=O", "effect": -14.39}
{"structure": "CN(CCn1cncc1-c1cnc(N2CCOCC2)nc1)C1CCCC1", "effect": -1.562}
{"structure": "COC(C)c1cccc(NCc2cccs2)c1", "stereo": "stereo not drawn", "effect": -6.482}
{"structure": "CCn1cc(NC(=O)C2CCC(=O)N2Cc2ccc(C)o2)cn1", "stereo": "stereo not drawn", "effect": -7.781}
{"structure": "O=C(CCc1ccsc1)NCC1CCN(C2CC2)C1", "stereo": "stereo not drawn", "effect": 1.481}
{"structure": "Cc1cc(F)ccc1NC(=O)NCC(C)N1CCOCC1", "stereo": "stereo not drawn", "effect": -83.59}

For reference, 3 entries once more:

structure,effect
Clc1cncc(NCc2cccc(OCCN3CCOCC3)c2)n1,10.67
Cc1ccc(S(=O)(=O)N(C)Cc2nccs2)cc1N(C)C,-70.66
O=c1cc(CN(CCO)C2CC2)nc2ccc(Br)cn12,-1.963

Measurements from “University of Dundee, Small-Polar-MMV Screening Library” (2021), ChEMBL document CHEMBL3988442.